Measurements as given in the supplement of paper PMC12823440, “Inhibitors supercharge kinase turnover through native proteolytic circuits” (Nature, 2025).
This is one part of the list. The calls rarely recur for the same compound in another form.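 Kinases were expressed as nanoluciferase fusions in K562 cells and luminescence was read every 4 h between 2 and 18 h as percent of control, DMSO set to 100% and a positive control to 0%. A time point counts as decreased when the signal drops significantly (2 sigma). The hit call is the authors' own, does not follow from the count of time points alone, and its rule is not shown.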

Chains of the proteins cited; added tags and fusions are not shown. Lines headed by an entry give the natural chain unless they say otherwise; changes in a name come on top.
UniProt P00519, whole entry: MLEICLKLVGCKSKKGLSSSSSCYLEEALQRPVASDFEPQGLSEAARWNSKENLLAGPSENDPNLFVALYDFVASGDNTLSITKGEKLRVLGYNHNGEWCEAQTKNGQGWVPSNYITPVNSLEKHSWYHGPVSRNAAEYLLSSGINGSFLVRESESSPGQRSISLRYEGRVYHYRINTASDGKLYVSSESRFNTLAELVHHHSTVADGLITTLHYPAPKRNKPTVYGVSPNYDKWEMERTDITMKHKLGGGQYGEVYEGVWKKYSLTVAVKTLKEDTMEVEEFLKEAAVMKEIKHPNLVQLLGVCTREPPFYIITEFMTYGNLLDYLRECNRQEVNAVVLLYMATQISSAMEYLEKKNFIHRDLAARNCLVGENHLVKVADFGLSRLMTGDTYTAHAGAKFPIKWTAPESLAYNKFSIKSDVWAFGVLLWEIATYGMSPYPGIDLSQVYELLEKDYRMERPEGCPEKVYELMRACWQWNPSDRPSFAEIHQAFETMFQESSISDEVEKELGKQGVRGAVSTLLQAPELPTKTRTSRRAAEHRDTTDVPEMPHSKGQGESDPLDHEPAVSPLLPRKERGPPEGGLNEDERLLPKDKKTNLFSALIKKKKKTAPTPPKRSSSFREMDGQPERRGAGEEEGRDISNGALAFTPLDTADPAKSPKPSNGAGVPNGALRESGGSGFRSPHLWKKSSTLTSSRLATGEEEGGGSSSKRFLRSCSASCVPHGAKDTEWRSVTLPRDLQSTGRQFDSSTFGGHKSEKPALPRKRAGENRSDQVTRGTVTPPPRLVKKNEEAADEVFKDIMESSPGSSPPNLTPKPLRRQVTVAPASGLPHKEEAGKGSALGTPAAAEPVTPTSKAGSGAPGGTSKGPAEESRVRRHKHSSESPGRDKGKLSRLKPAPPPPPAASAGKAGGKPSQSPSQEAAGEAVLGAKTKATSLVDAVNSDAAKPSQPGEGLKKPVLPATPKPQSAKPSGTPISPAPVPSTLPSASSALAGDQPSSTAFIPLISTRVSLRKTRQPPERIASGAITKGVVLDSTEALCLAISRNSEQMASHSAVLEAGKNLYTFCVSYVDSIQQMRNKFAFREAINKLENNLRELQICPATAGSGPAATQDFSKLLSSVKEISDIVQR
UniProt P31749: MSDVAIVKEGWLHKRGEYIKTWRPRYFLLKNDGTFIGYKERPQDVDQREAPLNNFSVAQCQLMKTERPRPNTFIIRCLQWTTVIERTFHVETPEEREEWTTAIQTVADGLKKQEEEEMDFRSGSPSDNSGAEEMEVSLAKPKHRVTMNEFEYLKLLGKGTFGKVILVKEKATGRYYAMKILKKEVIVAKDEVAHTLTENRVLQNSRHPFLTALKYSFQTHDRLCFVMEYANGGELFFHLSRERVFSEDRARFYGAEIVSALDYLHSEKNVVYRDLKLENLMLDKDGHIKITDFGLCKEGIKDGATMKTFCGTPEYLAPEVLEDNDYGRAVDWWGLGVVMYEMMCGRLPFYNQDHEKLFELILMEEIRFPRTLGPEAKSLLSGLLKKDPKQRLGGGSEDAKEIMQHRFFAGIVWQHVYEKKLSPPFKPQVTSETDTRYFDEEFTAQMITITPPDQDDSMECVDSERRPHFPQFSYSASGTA
UniProt Q9UM73: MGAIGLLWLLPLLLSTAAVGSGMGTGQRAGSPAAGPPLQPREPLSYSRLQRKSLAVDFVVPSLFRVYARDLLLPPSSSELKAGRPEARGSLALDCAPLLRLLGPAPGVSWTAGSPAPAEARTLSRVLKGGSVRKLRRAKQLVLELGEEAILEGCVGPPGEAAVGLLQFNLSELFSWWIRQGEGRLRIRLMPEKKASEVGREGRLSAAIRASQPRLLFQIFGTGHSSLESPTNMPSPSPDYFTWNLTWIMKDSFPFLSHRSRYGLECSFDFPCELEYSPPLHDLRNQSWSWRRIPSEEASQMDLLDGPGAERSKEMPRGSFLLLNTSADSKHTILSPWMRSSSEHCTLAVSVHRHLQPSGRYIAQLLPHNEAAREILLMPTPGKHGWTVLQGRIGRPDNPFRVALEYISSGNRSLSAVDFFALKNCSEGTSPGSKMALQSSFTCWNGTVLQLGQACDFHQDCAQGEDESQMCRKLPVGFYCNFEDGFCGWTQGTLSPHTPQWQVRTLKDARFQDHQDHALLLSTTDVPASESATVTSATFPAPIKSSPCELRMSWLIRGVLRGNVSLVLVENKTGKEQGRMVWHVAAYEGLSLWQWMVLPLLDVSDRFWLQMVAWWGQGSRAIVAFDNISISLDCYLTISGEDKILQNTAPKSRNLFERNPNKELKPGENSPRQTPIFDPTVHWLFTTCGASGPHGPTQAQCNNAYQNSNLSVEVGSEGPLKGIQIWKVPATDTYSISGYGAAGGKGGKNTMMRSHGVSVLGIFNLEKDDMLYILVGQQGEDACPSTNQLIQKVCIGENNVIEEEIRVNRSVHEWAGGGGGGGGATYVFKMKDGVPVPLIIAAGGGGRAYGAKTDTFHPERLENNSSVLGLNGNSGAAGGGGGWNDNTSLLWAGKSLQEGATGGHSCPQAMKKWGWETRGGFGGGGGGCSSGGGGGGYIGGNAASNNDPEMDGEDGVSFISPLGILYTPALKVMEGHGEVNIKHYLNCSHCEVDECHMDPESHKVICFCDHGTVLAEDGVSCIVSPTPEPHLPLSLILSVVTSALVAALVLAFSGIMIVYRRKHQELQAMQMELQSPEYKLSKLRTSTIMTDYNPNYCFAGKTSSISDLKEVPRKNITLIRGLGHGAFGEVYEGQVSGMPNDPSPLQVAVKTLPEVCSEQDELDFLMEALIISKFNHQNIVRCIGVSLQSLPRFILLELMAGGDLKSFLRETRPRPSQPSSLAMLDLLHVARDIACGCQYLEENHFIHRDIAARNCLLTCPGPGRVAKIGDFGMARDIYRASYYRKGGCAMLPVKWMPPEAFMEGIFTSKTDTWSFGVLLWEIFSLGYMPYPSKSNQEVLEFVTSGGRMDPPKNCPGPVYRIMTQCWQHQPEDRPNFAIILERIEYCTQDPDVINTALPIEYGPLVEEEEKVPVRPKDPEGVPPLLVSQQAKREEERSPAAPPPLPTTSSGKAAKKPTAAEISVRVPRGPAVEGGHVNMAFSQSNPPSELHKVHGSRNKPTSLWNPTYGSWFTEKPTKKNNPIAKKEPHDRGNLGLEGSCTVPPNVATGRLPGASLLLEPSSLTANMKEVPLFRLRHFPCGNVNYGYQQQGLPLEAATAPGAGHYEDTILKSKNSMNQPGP
UniProt Q9UQB9: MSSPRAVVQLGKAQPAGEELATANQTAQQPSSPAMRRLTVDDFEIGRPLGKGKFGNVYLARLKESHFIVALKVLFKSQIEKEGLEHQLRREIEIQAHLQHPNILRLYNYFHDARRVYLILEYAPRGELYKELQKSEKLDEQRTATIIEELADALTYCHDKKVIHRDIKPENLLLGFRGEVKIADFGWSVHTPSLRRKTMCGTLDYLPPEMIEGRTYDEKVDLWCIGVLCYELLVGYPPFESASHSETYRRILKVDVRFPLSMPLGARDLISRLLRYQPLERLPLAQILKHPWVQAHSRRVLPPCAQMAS
UniProt P51813: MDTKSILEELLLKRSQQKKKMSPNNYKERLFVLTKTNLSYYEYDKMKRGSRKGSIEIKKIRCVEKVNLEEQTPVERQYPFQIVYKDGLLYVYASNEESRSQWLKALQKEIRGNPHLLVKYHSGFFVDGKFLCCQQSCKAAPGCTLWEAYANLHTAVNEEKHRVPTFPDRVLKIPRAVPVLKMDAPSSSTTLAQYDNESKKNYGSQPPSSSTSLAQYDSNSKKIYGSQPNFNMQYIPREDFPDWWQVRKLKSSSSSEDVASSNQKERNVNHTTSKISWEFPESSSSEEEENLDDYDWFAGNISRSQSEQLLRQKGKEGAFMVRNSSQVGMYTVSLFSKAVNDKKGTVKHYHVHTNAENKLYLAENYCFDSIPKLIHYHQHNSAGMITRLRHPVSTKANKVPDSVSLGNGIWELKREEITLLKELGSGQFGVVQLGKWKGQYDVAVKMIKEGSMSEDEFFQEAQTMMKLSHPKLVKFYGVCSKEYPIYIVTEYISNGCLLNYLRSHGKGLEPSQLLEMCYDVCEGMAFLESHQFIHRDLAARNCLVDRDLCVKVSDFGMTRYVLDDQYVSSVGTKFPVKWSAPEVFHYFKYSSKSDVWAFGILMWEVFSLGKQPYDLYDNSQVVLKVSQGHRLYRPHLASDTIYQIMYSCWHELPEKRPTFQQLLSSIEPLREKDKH
UniProt Q06187: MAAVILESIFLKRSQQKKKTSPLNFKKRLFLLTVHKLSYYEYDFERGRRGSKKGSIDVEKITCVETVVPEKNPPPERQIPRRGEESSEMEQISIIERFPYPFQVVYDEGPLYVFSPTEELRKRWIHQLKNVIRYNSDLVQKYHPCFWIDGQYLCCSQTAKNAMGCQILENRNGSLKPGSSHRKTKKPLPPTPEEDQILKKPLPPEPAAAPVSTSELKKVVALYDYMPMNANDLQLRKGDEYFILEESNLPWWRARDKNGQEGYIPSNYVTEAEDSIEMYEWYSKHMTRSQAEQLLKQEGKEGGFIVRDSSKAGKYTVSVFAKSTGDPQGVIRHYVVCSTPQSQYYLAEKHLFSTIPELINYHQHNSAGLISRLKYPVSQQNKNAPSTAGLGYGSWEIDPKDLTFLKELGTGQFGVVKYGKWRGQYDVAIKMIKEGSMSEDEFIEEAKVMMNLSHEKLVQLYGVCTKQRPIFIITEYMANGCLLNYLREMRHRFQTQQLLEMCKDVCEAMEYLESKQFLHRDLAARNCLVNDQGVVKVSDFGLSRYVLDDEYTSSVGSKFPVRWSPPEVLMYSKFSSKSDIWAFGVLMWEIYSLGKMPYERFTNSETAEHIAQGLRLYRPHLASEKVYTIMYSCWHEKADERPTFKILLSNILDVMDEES
UniProt Q13555: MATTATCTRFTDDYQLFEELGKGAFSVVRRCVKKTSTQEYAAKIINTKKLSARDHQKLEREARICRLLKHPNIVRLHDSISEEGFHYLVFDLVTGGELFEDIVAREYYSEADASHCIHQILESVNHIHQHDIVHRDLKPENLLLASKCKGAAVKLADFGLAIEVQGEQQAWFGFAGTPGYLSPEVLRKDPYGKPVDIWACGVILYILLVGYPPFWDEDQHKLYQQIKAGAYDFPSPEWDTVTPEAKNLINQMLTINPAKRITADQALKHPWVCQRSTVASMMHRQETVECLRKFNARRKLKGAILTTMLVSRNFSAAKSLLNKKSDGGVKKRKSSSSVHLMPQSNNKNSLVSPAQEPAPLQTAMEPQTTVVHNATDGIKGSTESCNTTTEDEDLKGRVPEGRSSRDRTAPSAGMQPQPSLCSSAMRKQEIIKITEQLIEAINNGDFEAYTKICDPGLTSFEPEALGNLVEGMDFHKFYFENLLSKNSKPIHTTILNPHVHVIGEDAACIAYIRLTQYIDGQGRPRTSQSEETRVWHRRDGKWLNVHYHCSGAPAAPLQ
UniProt Q00526: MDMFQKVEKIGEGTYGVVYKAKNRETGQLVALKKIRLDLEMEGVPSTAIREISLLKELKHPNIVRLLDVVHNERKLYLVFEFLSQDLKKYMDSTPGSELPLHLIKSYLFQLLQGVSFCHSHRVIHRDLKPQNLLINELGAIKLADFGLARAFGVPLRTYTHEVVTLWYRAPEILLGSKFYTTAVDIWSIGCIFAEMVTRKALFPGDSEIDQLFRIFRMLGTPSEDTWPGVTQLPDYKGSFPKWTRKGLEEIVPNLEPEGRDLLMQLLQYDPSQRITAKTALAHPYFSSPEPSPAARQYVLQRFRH
UniProt P11802: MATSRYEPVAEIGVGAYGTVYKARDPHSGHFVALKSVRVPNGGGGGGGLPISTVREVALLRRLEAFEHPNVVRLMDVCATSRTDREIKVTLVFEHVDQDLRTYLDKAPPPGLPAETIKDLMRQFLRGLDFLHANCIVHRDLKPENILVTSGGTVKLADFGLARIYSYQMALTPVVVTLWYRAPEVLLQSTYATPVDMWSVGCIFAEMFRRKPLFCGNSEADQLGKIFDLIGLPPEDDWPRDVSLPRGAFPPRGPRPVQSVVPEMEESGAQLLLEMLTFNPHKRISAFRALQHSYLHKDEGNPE
UniProt Q00535, whole entry, looked up: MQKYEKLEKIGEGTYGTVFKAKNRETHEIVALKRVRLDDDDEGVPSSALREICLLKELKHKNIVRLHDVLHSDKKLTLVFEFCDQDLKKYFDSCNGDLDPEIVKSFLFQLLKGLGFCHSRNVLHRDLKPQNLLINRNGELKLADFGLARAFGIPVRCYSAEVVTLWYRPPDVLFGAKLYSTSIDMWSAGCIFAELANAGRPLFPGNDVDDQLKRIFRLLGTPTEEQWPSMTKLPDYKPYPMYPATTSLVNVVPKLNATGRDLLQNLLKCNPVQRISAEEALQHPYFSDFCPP

Tests used:
Test in all cases: kinase-Nluc reporter destabilization hit call (1 = scored as downregulated) (binary); higher = compound decreases kinase abundance
Conditions in all cases: K562; 2-18 h
ABL1 = ABL1 (UniProt P00519)
AKT1 = AKT1 (UniProt P31749)
ALK = ALK (UniProt Q9UM73)
ARAF = ARAF (UniProt P10398)
AURKA = AURKA (UniProt O14965)
AURKB = AURKB (UniProt Q96GD4)
AURKC = AURKC (UniProt Q9UQB9)
BLK = BLK (UniProt P51451)
BMX = BMX (UniProt P51813)
BRAF = BRAF (UniProt P15056)
BRAF_V600E = system: BRAF_V600E
BTK = BTK (UniProt Q06187)
CAMK2A = CAMK2A (UniProt Q9UQM7)
CAMK2G = CAMK2G (UniProt Q13555)
CDK10 = CDK10 (UniProt Q15131)
CDK2 = CDK2 (UniProt P24941)
CDK3 = CDK3 (UniProt Q00526)
CDK4 = CDK4 (UniProt P11802)
CDK5 = CDK5 (UniProt Q00535)
CDK6 = CDK6 (UniProt Q00534)

Measured: kinase-Nluc reporter destabilization hit call

O=C(Nc1ccc(Cl)c(Cl)c1)Nc1ccc2nnsc2c1 (10 µM)
inactive: ABL1 = 0 | AKT1 = 0 | ALK 0 | ARAF 0 | AURKA 0 | AURKB 0 | AURKC 0 | BLK 0 | BMX 0 | BRAF 0 | BRAF_V600E 0 | BTK 0 | CAMK2A 0 | CAMK2G 0 | CDK10 = 0 | CDK2 = 0 | CDK3 = 0 | CDK4 = 0 | CDK5 = 0 | CDK6 = 0

COC(=O)[C@@]1(C)CC[C@]2(C(=O)O)CC[C@]3(C)C(=CC[C@@H]4[C@@]5(C)C[C@H](O)[C@H](O[C@@H]6OC[C@@H](O[C@@H]7O[C@H](CO)[C@@H](O)[C@H](O)[C@H]7O)[C@H](O)[C@H]6O)[C@@](C)(CO)[C@@H]5CC[C@]43C)[C@@H]2C1 [Esculentoside A] (10 µM)
inactive: ABL1 = 0 | AKT1 = 0 | ALK 0 | ARAF 0 | AURKA 0 | AURKB 0 | AURKC 0 | BLK 0 | BMX 0 | BRAF 0 | BRAF_V600E 0 | BTK 0 | CAMK2A 0 | CAMK2G 0 | CDK10 = 0 | CDK2 = 0 | CDK3 = 0 | CDK4 = 0 | CDK5 = 0 | CDK6 = 0

O=C(Nc1ccc(Cl)cc1)C1CCCN(C(=O)c2cccc(-c3ccco3)c2)C1 (stereo not given) (2.5 µM)
inactive: ABL1 = 0 | AKT1 = 0 | ALK 0 | ARAF 0 | AURKA 0 | AURKB 0 | AURKC 0 | BLK 0 | BMX 0 | BRAF 0 | BRAF_V600E 0 | BTK 0 | CAMK2A 0 | CAMK2G 0 | CDK10 = 0 | CDK2 = 0 | CDK3 = 0 | CDK4 = 0 | CDK5 = 0 | CDK6 = 0

O=C1NC(=O)C(=Cc2ccc3c(c2)OCO3)S1 (10 µM)
inactive: ABL1 = 0 | AKT1 = 0 | ALK 0 | ARAF 0 | AURKA 0 | AURKB 0 | AURKC 0 | BLK 0 | BMX 0 | BRAF 0 | BRAF_V600E 0 | BTK 0 | CAMK2A 0 | CAMK2G 0 | CDK10 = 0 | CDK2 = 0 | CDK3 = 0 | CDK4 = 0 | CDK5 = 0 | CDK6 = 0

CCCC(=O)Nc1nc2c(ncn2[C@@H]2O[C@@H]3COP(=O)(O)O[C@H]3[C@H]2OC(=O)CCC)c(=O)[nH]1 [Dibutyryl-cGMP (sodium)] (10 µM)
inactive: ABL1 = 0 | AKT1 = 0 | ALK 0 | ARAF 0 | AURKA 0 | AURKB 0 | AURKC 0 | BLK 0 | BMX 0 | BRAF 0 | BRAF_V600E 0 | BTK 0 | CAMK2A 0 | CAMK2G 0 | CDK10 = 0 | CDK2 = 0 | CDK3 = 0 | CDK4 = 0 | CDK5 = 0 | CDK6 = 0

O=c1cc(-c2ccc(O)c(O)c2O)oc2ccccc12 (10 µM)
inactive: ABL1 = 0 | AKT1 = 0 | ALK 0 | ARAF 0 | AURKA 0 | AURKB 0 | AURKC 0 | BLK 0 | BMX 0 | BRAF 0 | BRAF_V600E 0 | BTK 0 | CAMK2A 0 | CAMK2G 0 | CDK10 = 0 | CDK2 = 0 | CDK3 = 0 | CDK4 = 0 | CDK5 = 0 | CDK6 = 0

CC[C@@H](N)CNc1ccnc(-c2cc(-c3cnn(C)c3)ccc2O)n1 (2.5 µM)
inactive: ABL1 = 0 | AKT1 = 0 | ALK 0 | ARAF 0 | AURKA 0 | AURKB 0 | AURKC 0 | BLK 0 | BMX 0 | BRAF 0 | BRAF_V600E 0 | BTK 0 | CAMK2A 0 | CAMK2G 0 | CDK10 = 0 | CDK2 = 0 | CDK3 = 0 | CDK4 = 0 | CDK5 = 0 | CDK6 = 0

Cc1cc2ncc(-c3ccccc3)nc2cc1C (10 µM)
inactive: ABL1 = 0 | AKT1 = 0 | ALK 0 | ARAF 0 | AURKA 0 | AURKB 0 | AURKC 0 | BLK 0 | BMX 0 | BRAF 0 | BRAF_V600E 0 | BTK 0 | CAMK2A 0 | CAMK2G 0 | CDK10 = 0 | CDK2 = 0 | CDK3 = 0 | CDK4 = 0 | CDK5 = 0 | CDK6 = 0

O=C1NC(=O)C(c2cn(-c3ccccc3)nc2-c2ccc(F)cc2)N1 (stereo not given) (10 µM)
inactive: ABL1 = 0 | AKT1 = 0 | ALK 0 | ARAF 0 | AURKA 0 | AURKB 0 | AURKC 0 | BLK 0 | BMX 0 | BRAF 0 | BRAF_V600E 0 | BTK 0 | CAMK2A 0 | CAMK2G 0 | CDK10 = 0 | CDK2 = 0 | CDK3 = 0 | CDK4 = 0 | CDK5 = 0 | CDK6 = 0

CC1(COc2ccc3c(c2)ncn3-c2ccc3cccc(N4CCC(N)CC4)c3n2)COC1 [Crenolanib] (2.5 µM)
inactive: ABL1 = 0 | AKT1 = 0 | ALK 0 | ARAF 0 | AURKA 0 | AURKB 0 | AURKC 0 | BLK 0 | BMX 0 | BRAF 0 | BRAF_V600E 0 | BTK 0 | CAMK2A 0 | CAMK2G 0 | CDK10 = 0 | CDK2 = 0 | CDK3 = 0 | CDK4 = 0 | CDK5 = 0 | CDK6 = 0

C[C@@H]1CCc2ncc(F)cc2[C@H]2CCCN2c2ccn3ncc(c3n2)C(=O)N1 [Selitrectinib] (10 µM)
inactive: ABL1 = 0 | AKT1 = 0 | ALK 0 | ARAF 0 | AURKA 0 | AURKB 0 | AURKC 0 | BLK 0 | BMX 0 | BRAF 0 | BRAF_V600E 0 | BTK 0 | CAMK2A 0 | CAMK2G 0 | CDK10 = 0 | CDK2 = 0 | CDK3 = 0 | CDK4 = 0 | CDK5 = 0 | CDK6 = 0

Cc1cc2cc(Oc3ccnc(Nc4cccc(CS(=O)(=O)NCCN(C)C)c4)n3)ccc2[nH]1 [Sulfatinib] (10 µM)
inactive: ABL1 = 0 | AKT1 = 0 | ALK 0 | ARAF 0 | AURKA 0 | AURKB 0 | AURKC 0 | BLK 0 | BMX 0 | BRAF 0 | BRAF_V600E 0 | BTK 0 | CAMK2A 0 | CAMK2G 0 | CDK10 = 0 | CDK2 = 0 | CDK3 = 0 | CDK4 = 0 | CDK5 = 0 | CDK6 = 0

CC(C)c1ccc(CC(=O)N2CCN(c3ccc(C#N)nn3)CC2)cc1 (10 µM)
inactive: ABL1 = 0 | AKT1 = 0 | ALK 0 | ARAF 0 | AURKA 0 | AURKB 0 | AURKC 0 | BLK 0 | BMX 0 | BRAF 0 | BRAF_V600E 0 | BTK 0 | CAMK2A 0 | CAMK2G 0 | CDK10 = 0 | CDK2 = 0 | CDK3 = 0 | CDK4 = 0 | CDK5 = 0 | CDK6 = 0
